From the supplement of paper PMC10849652
The list shows a part of the results. Residues, ends and D or L forms follow the SMILES beside them. *: point of attachment. Cbz = O=C(OCc1ccccc1)*

Sequences of proteins named here, by UniProt entry; tags and fusion partners are left off. A change or cut given only in a name is not applied to a line headed by its entry.
UniProt P00488: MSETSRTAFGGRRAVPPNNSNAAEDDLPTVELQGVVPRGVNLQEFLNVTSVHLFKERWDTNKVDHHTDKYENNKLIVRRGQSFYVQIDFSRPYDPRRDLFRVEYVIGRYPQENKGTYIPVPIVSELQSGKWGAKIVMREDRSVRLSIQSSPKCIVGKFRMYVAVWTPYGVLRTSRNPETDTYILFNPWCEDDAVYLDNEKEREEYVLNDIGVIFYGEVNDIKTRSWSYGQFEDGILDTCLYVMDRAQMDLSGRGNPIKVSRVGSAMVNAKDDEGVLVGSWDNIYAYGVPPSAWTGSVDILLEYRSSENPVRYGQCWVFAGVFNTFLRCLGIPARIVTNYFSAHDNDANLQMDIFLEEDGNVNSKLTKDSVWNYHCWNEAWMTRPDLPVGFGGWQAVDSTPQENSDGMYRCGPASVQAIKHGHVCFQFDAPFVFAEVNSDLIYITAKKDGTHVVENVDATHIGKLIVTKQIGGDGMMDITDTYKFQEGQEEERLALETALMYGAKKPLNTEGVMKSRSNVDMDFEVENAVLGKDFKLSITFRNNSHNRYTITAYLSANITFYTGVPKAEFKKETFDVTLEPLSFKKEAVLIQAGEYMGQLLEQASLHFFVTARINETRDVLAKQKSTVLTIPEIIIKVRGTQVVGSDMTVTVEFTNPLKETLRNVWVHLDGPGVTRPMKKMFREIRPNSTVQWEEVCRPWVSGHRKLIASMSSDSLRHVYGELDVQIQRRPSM
UniProt Q9H501: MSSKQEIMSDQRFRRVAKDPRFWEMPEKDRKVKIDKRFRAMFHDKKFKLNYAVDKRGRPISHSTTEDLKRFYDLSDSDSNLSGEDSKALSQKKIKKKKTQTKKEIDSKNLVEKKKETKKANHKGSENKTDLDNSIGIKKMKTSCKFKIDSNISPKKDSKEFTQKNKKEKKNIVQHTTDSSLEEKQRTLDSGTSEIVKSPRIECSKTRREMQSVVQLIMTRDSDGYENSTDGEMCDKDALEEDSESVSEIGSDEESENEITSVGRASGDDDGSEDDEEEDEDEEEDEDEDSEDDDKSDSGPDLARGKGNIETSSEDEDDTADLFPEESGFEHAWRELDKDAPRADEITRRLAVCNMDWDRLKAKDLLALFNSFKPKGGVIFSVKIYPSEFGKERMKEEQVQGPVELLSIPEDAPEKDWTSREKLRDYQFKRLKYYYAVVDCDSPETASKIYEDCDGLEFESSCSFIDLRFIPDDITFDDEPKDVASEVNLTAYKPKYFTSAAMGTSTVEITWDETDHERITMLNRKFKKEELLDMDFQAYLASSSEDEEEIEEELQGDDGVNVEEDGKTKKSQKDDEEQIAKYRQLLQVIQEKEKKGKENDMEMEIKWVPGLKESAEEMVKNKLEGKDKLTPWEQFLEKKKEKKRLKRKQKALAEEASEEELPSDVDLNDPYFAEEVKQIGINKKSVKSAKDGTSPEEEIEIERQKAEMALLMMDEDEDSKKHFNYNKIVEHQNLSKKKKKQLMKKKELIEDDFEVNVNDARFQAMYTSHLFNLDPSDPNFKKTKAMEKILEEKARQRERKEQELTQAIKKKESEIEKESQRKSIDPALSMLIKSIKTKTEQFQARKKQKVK
UniProt Q8TBP5: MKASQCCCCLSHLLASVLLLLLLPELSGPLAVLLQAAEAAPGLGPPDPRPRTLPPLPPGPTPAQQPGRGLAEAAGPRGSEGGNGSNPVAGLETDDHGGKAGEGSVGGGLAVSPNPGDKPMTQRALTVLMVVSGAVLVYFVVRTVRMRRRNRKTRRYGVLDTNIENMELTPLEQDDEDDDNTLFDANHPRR
UniProt P05160: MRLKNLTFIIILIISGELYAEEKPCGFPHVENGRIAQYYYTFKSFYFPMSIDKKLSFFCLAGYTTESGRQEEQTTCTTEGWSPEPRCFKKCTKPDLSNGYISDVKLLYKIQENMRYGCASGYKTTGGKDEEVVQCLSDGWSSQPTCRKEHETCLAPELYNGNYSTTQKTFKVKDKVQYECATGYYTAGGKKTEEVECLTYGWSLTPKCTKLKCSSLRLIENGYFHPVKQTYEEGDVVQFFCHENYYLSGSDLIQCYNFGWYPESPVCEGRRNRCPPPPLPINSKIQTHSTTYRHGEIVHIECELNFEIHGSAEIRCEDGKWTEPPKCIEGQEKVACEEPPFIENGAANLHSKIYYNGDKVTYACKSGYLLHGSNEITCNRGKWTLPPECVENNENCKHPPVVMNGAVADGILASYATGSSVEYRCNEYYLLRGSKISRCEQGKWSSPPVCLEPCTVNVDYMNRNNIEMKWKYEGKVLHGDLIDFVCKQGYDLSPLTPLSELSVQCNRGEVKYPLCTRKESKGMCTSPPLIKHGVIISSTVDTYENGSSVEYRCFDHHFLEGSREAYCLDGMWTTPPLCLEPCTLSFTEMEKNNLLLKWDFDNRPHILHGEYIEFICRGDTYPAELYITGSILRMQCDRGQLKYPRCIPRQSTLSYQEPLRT
UniProt P07992: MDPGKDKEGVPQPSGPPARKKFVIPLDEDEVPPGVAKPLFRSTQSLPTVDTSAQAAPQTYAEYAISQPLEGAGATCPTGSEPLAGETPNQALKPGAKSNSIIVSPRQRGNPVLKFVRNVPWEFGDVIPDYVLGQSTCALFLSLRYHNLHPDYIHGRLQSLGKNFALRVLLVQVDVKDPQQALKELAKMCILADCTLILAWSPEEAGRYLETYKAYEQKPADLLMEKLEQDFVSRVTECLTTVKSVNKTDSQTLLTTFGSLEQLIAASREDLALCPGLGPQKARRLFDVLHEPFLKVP
UniProt Q8TE68: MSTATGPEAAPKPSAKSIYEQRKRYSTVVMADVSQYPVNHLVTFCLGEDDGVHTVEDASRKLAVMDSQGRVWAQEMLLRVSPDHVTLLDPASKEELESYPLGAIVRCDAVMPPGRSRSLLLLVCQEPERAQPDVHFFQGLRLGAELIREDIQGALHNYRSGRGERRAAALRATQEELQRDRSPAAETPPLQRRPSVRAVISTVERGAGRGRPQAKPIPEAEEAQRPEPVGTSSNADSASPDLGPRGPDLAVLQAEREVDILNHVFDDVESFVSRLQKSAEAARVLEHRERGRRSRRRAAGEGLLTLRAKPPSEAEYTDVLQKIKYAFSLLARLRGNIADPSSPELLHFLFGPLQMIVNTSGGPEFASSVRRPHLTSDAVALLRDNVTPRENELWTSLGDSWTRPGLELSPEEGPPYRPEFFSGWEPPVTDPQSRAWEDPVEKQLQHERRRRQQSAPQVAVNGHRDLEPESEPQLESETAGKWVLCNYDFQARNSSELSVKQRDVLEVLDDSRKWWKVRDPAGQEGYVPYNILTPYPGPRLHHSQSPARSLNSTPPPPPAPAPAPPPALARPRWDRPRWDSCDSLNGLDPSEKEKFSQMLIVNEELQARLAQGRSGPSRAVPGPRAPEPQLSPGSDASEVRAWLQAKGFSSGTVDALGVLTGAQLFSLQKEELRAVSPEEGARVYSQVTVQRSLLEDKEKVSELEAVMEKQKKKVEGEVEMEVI
UniProt Q8WUF8: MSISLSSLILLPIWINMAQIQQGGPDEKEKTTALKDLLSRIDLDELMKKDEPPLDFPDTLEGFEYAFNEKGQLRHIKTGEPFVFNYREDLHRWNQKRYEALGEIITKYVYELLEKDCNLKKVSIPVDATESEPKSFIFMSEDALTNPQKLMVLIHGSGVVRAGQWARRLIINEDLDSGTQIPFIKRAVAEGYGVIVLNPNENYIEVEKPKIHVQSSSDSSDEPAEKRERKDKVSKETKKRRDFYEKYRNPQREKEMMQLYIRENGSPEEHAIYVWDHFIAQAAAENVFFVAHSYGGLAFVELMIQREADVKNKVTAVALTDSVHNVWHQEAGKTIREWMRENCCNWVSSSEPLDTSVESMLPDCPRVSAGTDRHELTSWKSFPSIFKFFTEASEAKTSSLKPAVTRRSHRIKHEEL
UniProt O43491, whole entry, looked up: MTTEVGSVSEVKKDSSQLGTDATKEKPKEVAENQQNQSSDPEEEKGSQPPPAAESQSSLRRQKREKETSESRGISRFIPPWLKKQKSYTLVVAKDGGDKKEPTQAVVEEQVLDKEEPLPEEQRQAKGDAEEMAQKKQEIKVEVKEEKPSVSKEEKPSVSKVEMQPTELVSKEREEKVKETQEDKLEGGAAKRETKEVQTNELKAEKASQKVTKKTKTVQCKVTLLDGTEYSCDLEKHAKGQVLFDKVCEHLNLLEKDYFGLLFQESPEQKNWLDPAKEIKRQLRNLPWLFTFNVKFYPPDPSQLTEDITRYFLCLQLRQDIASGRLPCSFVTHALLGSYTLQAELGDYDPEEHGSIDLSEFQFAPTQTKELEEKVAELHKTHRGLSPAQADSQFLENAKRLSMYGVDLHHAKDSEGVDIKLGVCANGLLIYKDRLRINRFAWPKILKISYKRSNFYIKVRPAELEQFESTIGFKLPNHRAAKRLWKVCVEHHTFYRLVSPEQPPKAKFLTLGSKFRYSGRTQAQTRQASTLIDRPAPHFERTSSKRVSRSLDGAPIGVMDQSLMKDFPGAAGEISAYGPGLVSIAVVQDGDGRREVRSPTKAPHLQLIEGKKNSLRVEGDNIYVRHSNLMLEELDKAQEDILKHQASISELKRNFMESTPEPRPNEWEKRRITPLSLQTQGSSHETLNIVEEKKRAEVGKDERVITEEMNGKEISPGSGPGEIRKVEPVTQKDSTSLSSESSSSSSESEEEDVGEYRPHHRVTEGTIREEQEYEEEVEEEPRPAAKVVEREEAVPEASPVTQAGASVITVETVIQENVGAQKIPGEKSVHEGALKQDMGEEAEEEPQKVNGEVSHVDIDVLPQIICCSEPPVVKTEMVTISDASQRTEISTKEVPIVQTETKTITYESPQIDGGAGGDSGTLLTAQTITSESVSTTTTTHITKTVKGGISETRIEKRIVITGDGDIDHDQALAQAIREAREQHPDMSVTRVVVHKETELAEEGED
UniProt Q8IXS8: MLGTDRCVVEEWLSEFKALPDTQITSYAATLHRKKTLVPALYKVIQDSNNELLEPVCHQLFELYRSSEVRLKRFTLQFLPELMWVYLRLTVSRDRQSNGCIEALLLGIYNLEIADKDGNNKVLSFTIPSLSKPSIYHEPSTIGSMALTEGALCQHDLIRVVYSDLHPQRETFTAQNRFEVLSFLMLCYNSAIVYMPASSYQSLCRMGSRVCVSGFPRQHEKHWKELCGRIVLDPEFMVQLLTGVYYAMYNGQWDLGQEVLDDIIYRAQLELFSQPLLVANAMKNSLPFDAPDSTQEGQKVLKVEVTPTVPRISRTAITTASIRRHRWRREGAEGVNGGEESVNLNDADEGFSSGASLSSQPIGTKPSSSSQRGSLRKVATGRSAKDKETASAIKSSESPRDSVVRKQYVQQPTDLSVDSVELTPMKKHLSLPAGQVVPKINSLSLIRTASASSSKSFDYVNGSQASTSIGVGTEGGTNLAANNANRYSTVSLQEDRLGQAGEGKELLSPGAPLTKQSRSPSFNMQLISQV
UniProt Q9H2F5, whole entry, looked up: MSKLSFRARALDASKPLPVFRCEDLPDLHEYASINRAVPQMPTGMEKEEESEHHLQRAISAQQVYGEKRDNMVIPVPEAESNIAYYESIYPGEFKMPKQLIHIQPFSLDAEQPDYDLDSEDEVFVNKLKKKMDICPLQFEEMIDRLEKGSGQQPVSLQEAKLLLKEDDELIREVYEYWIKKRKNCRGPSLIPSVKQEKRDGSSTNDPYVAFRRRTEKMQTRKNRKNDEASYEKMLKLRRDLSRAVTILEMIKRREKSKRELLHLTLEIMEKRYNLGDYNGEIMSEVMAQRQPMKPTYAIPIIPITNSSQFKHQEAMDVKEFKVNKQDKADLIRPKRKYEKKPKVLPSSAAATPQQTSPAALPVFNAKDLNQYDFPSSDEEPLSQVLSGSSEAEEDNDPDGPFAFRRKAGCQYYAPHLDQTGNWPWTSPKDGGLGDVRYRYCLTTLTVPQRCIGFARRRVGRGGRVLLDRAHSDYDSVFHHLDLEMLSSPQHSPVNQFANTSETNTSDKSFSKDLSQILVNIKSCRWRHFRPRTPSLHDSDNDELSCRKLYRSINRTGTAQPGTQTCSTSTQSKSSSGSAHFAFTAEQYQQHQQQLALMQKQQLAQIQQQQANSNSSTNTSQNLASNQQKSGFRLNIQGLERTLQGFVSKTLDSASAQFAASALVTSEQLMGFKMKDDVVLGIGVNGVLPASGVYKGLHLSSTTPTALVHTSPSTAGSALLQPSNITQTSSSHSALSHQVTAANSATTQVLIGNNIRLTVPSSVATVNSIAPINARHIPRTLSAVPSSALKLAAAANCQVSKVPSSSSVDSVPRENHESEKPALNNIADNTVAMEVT
UniProt P05413, whole entry, looked up: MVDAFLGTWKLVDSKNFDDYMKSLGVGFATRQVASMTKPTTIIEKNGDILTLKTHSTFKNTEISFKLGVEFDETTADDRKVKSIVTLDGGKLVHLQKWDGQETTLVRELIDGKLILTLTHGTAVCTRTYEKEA
UniProt Q6NZ36: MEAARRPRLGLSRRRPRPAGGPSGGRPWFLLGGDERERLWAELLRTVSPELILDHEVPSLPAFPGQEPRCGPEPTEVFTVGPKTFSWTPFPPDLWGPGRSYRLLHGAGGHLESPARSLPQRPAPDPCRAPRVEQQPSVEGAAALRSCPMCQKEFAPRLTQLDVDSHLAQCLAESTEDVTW

How the values were obtained:
Test in all cases: log2 fold change, soluble protein after heating vs DMSO (PISA); higher = thermal stabilisation; K562 cells, 10 uM, 30 min; active = over 0.2 and 3.5 SD of the protein, either way, in both replicates (recomputed)
[1] = compound: C1=CC(=C(C=C1Cl)C2=NC3=NC=CN=C3C(=N2)NC4=CC=NC=C4)F
In short: (§1)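 Soluble protein was defined as the supernatant after 21,000xg for 90 min. It came from K562 cells at 2×10^6 cells/mL given 10 μM compound for 30 min, heated in aliquots for 3 min across 48°C-58°C, pooled, and extracted in PBS with 0.5% NP-40 at 4°C, and was quantified by TMTpro 16plex LC-MS/MS with equalised channel sums. Thermal stability against control samples, from duplicates, is reported as log2 fold change.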

[2] = compound: C1=CC2=NC=CN=C2C=C1/C=C/3\C(=O)NC(=O)S3
In short: as §1

ibrutinib = compound: C=CC(=O)N1CCC[C@@H](n2nc(-c3ccc(Oc4ccccc4)cc3)c3c(N)ncnc32)C1 [ibrutinib]
In short: as §1

[3] = compound: CC(C)(O)CC(=O)NCCn1ccc2ncnc(Nc3ccc(Oc4cccc(C(F)(F)F)c4)c(Cl)c3)c21
In short: as §1

[4] = compound: C/C(=N\NC(=O)C1=CC(=CC=C1)S(=O)(=O)N2CCOCC2)/C3=C(C=CC(=C3)Cl)O
In short: as §1

[5] = compound: C1=CC2=C(C=CC(=C2)/C=C\3/C(=O)NC(=NCC4=CC=CS4)S3)N=C1
In short: as §1

[6] = compound: C1=CC=C(C=C1)C2=NC(=C(N2)C3=CC=NC=C3)C4=CC(=C(C=C4)Cl)O
In short: as §1

[7] = compound: C1=CC=C2C(=C1)C3=NNC4=CC=CC(=C43)C2=O
In short: as §1

[8] = compound: C1CCN(C1)C(=O)NC2=CC=CC(=C2)NC3=NC=C(C(=N3)NCCC4=CN=CN4)Br
In short: as §1

[9] = compound: C1CN(CCC1(CC2=CC=C(C=C2)Cl)N)C3=NC=NC4=C3C=CN4
In short: as §1

IRAK-1-4 Inhibitor I = compound: C1COCCN1CCN2C3=CC=CC=C3N=C2NC(=O)C4=CC(=CC=C4)[N+](=O)[O-] [IRAK-1-4 Inhibitor I]
In short: as §1

[10] = compound: CC(=O)c1cnc2ccc(-c3cc(Cl)c(O)c(Cl)c3)nc2c1N[C@H]1CC[C@H](CN(C)C)CC1
In short: as §1

ralimetinib = compound: CC(C)(C)Cn1c(N)nc2ccc(-c3[nH]c(C(C)(C)C)nc3-c3ccc(F)cc3)nc21 [ralimetinib]
In short: as §1

[11] = compound: CC(C)C[C@@H](C=O)NC(=O)[C@H](CC(C)C)NC(=O)[C@H](CC(C)C)NC(=O)OCc1ccccc1
In short: as §1

pinometostat = compound: CC(C)N(C[C@H]1O[C@@H](n2cnc3c(N)ncnc32)[C@H](O)[C@@H]1O)[C@H]1C[C@@H](CCc2nc3cc(C(C)(C)C)ccc3[nH]2)C1 [pinometostat]
In short: as §1

[12] = compound: CC1=C(C(CC(=O)N1)C2=CC=C(C=C2)C(F)(F)F)C(=O)NC3=C(C=C4C(=C3)C=NN4)F
In short: as §1

[13] = compound: CC1=C(C2=C(C=C1)C(=O)C3=CC=CC=C3N2CCCN)C
In short: as §1

Measured: log2 fold change

EPHX2 (UniProt E5RI53)
inactive: [1] 0.037 | [2] -0.082 | ibrutinib 0.085 | [3] 0.071

ERCC6L (UniProt Q2NKX8)
inactive: [4] 0.02 | [1] -0.259 | [5] -0.012 | [2] 0.088 | [6] -0.076 | [7] -0.123 | [8] -0.101 | [9] -0.081 | IRAK-1-4 Inhibitor I -0.127 | ibrutinib 0.065 | [10] 0.017 | ralimetinib 0.106 | [3] 0 | [11] 0.066 | pinometostat 0.368 | [12] 0.031 | [13] 0.02

F13A1 (UniProt P00488)
inactive: [2] -0.046 | [8] -0.277 | [9] 0.256 | ibrutinib 0.242 | [12] -0.027 | [13] -0.082

ESF1 (UniProt Q9H501)
inactive: [2] 0.696 | [6] 0.175 | ibrutinib -0.207 | ralimetinib 0.087 | [11] 0.376

FAM174A (UniProt Q8TBP5)
inactive: [8] 0 | [9] 0.095 | IRAK-1-4 Inhibitor I -0.112 | pinometostat 0.004 | [13] -0.04

ERICH1 (UniProt Q86X53)
inactive: [8] 0.041 | [9] -0.137 | IRAK-1-4 Inhibitor I -0.055 | pinometostat 0.141 | [13] 0.074

FAM118A (UniProt Q9NWS6)
inactive: [4] 0.005 | [1] 0.098 | [5] 0.083 | [2] 0.089 | [6] -0.365 | [7] 0.212 | [8] 0.084 | [9] 0.078 | IRAK-1-4 Inhibitor I -0.009 | ibrutinib 0.045 | [10] -0.212 | ralimetinib -0.21 | [3] -0.207 | [11] -0.125 | pinometostat -0.054 | [13] 0.014

EPS15L1 (UniProt M0QY01)
inactive: [1] -0.004 | IRAK-1-4 Inhibitor I 0.047 | [3] 0.084 | pinometostat 0.127

Quoted from the results shown (7 entries):
EPHX2 (UniProt E5RI53)
inactive: [1] 0.037 | [2] -0.082 | ibrutinib 0.085 | [3] 0.071

ERCC6L (UniProt Q2NKX8)
inactive: [4] 0.02 | [1] -0.259 | [5] -0.012 | [2] 0.088 | [6] -0.076 | [7] -0.123 | [8] -0.101 | [9] -0.081 | IRAK-1-4 Inhibitor I -0.127 | ibrutinib 0.065 | [10] 0.017 | ralimetinib 0.106 | [3] 0 | [11] 0.066 | pinometostat 0.368 | [12] 0.031 | [13] 0.02

F13A1 (UniProt P00488)
inactive: [2] -0.046 | [8] -0.277 | [9] 0.256 | ibrutinib 0.242 | [12] -0.027 | [13] -0.082

ESF1 (UniProt Q9H501)
inactive: [2] 0.696 | [6] 0.175 | ibrutinib -0.207 | ralimetinib 0.087 | [11] 0.376

FAM174A (UniProt Q8TBP5)
inactive: [8] 0 | [9] 0.095 | IRAK-1-4 Inhibitor I -0.112 | pinometostat 0.004 | [13] -0.04

ERICH1 (UniProt Q86X53)
inactive: [8] 0.041 | [9] -0.137 | IRAK-1-4 Inhibitor I -0.055 | pinometostat 0.141 | [13] 0.074

FAM118A (UniProt Q9NWS6)
inactive: [4] 0.005 | [1] 0.098 | [5] 0.083 | [2] 0.089 | [6] -0.365 | [7] 0.212 | [8] 0.084 | [9] 0.078 | IRAK-1-4 Inhibitor I -0.009 | ibrutinib 0.045 | [10] -0.212 | ralimetinib -0.21 | [3] -0.207 | [11] -0.125 | pinometostat -0.054 | [13] 0.014

The listing continues.

F13B (UniProt P05160)
inactive: [8] -0.053 | [9] 0.137 | [13] -0.255

ERCC1 isoform 3 (UniProt P07992)
inactive: [6] -0.028 | ralimetinib 0.071 | [11] 0.011

EXOG (UniProt Q9Y2C4)
inactive: [4] -0.083 | [5] -0.019 | [6] 0.052 | [7] 0.015 | [8] -0.159 | [9] 0.122 | [10] -0.004 | ralimetinib -0.113 | [11] -0.103 | [13] -0.276

EPS8L1 (UniProt Q8TE68)
inactive: [1] 0.042 | [2] -0.211 | ibrutinib 0 | [3] 0.02

FAM110A (UniProt Q9BQ89)
inactive: [1] -0.131 | [3] -0.006

FAM172A (UniProt Q8WUF8)
inactive: [1] 0.031 | [2] -0.106 | ibrutinib -0.056 | [3] 0.008 | [12] -0.059

EPB41L2 isoform 4 (UniProt O43491)
inactive: [1] 0.027 | [2] -0.005 | IRAK-1-4 Inhibitor I -0.354 | ibrutinib 0.063 | [3] -0.06 | pinometostat -0.035 | [12] -0.201

FAM126B (UniProt Q8IXS8)
inactive: [4] -0.129 | [5] 0.193 | [7] 0.207 | [10] 0.037 | [12] -0.184

EPHB4 (UniProt P54760)
inactive: [6] -0.151 | ralimetinib 0.131 | [11] 0.241

EYA3 (UniProt Q99504)
inactive: [4] 0.056 | [5] 0.304 | [7] -0.034 | [8] -0.146 | [9] -0.069 | [10] 0.169 | [13] 0.018

ETF1 isoform 2 (UniProt P62495)
inactive: [4] -0.019 | [5] 0.177 | [2] 0.057 | [6] -0.281 | [7] -0.04 | ibrutinib -0.066 | [10] -0.047 | ralimetinib -0.263 | [11] 0.373

EPC1 (UniProt Q9H2F5)
inactive: [6] -0.186 | ralimetinib -0.008 | [11] -0.138

FABP3 (UniProt P05413)
inactive: [4] -0.221 | [5] 0.025 | [7] -0.175 | [10] -0.041

F9 (UniProt P00740)
inactive: [4] -0.081 | [5] 0.153 | [2] 0.123 | [7] -0.271 | [8] -0.035 | [9] 0.277 | ibrutinib 0.275 | [10] -0.006 | [12] -0.159 | [13] -0.023

F2R (UniProt P25116)
inactive: [4] 0.008 | [5] -0.004 | [7] -0.095 | [8] -0.059 | [9] -0.054 | [10] 0.202 | [13] -0.019

FADS1 (UniProt F5GYH4)
inactive: [2] 0.155 | [8] 0.057 | [9] 0.002 | IRAK-1-4 Inhibitor I 0.02 | ibrutinib -0.093 | pinometostat 0.075 | [13] -0.097

EPG5 (UniProt Q9HCE0)
inactive: [1] -0.375 | [6] 0.051 | ralimetinib -0.089 | [3] -0.025 | [11] 0.045

FAM160A2 isoform 2 (UniProt Q8N612)
inactive: [1] 0.2 | [2] -0.012 | [6] -0.134 | [8] -0.071 | [9] 0.027 | IRAK-1-4 Inhibitor I 0.029 | ibrutinib -0.003 | ralimetinib -0.029 | [3] -0.326 | [11] 0.013 | pinometostat 0.004 | [13] 0.102

FAAP20 isoform 2 (UniProt Q6NZ36)
inactive: [1] -0.055 | [3] -0.021
